This note sets out measurements from article PMC4746636.

Protein sequences, listed by entry. Tags and fused reporters are not part of them. Residues count along the entry.
UniProt Q15554, 43-542: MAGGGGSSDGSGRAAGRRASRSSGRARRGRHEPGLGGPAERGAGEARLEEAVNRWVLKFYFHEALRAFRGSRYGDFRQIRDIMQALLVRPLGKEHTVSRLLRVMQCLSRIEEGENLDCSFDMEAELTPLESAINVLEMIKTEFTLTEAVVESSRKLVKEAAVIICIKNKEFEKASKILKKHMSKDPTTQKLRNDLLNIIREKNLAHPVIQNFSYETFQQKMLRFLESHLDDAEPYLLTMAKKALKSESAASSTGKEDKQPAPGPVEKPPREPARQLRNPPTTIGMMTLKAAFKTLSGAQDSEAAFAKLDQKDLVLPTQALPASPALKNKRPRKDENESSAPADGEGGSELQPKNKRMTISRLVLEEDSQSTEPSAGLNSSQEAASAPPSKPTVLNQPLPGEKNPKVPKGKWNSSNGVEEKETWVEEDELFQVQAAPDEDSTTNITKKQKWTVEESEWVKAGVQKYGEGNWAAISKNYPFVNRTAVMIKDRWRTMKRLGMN

The target of the series is TRF2 (UniProt Q15554). The series can be described thus: EMSA (agarose). The note with it: 5 nM DNA, 100 nM TRF2; EMSA: 5 nM DNA, 100 nM TRF2, agarose gel; AFM compaction comparison of TRF2ΔB at 300 nM protein; recombinant protein; protein details: His6; label: Alexa488 at 5' of top strand. In general terms: A gel shift assay detects complexes by their altered migration in electrophoresis.

Construct, isoform or probe ends are uncertain for at least one entry.

For the sequence “TTAGGGTTAGGGTTAGGGATGTCCAGCAAGCCAGAATTCGGCAGCGTA (double strand) [48-bp telomeric duplex (3 TTAGGG)]”, the binding result is given as “binds”.
